The values that follow come from patent US20050244829A1, “Method of screening insulin resistance inproving drug” (priority 2002, published 2005).

Chains of the proteins cited; added tags and fusions are not shown. Lines headed by an entry give the natural chain unless they say otherwise; changes in a name come on top.
UniProt P37231: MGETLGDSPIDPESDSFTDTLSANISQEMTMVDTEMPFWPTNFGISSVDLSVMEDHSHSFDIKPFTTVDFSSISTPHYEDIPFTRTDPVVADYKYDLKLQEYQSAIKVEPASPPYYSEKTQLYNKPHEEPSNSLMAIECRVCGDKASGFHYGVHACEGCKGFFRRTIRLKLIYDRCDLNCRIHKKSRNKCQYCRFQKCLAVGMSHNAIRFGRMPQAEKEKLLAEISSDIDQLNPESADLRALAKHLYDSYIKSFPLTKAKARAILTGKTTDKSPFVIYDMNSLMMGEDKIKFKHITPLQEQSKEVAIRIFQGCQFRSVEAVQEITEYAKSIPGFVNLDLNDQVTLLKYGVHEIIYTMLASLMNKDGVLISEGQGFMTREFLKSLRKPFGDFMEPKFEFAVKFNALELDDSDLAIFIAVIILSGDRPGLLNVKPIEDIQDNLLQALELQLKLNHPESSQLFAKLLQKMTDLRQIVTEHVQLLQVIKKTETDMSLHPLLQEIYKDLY
UniProt P17844: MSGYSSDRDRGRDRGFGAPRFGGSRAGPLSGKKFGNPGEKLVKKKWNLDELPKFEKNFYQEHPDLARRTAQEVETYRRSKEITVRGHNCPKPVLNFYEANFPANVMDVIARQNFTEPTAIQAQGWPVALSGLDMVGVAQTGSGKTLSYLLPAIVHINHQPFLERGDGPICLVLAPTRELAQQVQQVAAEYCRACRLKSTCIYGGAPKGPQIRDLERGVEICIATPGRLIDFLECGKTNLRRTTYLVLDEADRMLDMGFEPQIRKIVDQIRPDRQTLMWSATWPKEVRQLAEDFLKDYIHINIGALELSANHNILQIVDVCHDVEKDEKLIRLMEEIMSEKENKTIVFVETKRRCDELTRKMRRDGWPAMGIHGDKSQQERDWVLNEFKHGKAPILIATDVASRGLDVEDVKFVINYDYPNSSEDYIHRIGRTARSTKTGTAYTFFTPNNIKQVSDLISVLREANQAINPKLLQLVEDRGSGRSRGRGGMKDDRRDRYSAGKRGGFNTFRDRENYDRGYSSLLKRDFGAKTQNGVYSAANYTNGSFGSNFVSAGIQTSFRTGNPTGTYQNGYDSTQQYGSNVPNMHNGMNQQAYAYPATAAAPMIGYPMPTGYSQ

Experiment [1] deals with GST-PPARγ-AF-1 fusion protein (human) (UniProt P37231). As to the kind of experiment: GST pull-down; 35S-labeled in vitro translated p68 on gel-bound GST-PPARγ-AF-1, SDS-PAGE, imaging analyzer.
The target is the same in experiment [2]. Put plainly: GST pull-down (restated result of Example 1).

Results are given in words; binding and its absence hold for the method and conditions named. Binding seen in cells or lysates may run through a third protein. Some binding calls cover weakened binding; strength is not graded here.

On to “full-length p68 RNA helicase protein, radio-labeled with radioactive methionine (in vitro translated from pSG5-p68) (from UniProt P17844 1-614) (enzyme)”, for which the binding entry in experiment [1] and in experiment [2] was “binds” each time.
